Measurements reported in US11278550B2, “Compositions and methods for the treatment of Prader-Willi syndrome” (Duke University, priority 2016, dated 2022).
At least one structure is not confirmed: it was looked up by name or label, or the drawing left a doubt.

System: maternal Snrpn-EGFP MEFs
Assay: High content screening / concentration response of Snrpn-EGFP unsilencing
Format: cell-based, mouse
Details: mS-EGFP/p+ MEFs
Description: High content screenings of small molecules were performed as described in Huang, et al. Nature 481, 185-189 (2012). HCS comprises a 384-well high-content screen using primary mouse embryonic fibroblasts (MEFs) from m^S-EGFP/p^+, and searched for drug-like molecules that could unsilence the maternal S-EFGP allele. […] To perform the screen, primary MEFs were isolated from E12.5-14.5 embryos of m^S-EGFP/p^+ and cultured for 7 days in Dulbecco's modified Eagle's media supplemented with 10% fetal bovine serum, 100 Units/mL penicillin and 100 μg/mL streptomycin, at 37° C. and 5% CO2. One day before treatment with small molecules, 5,000 cells per well were plated onto 384-well plates. […] The unsilencing of Snrpn-EGFP was determined three days after drug treatment. The immunofluorescence-processed fibroblasts were imaged for Hoechst and Alexa Fluor 488 fluorescence using a BD Pathway 855 high content imaging microscope. Antibody-enhanced Snrpn-EGPF fluorescence intensity was determined in drug-treated cells individually and normalized to cells treated with vehicle control. In order to identify potentially active compounds, an arbitrary cutoff of 125% was used where 100% indicates basal fluorescence in the vehicle-treated MEFs. […] The dose-response results were analyzed by using Graphpad Prism (Graphpad Software). […]

## Nc1ncnc2c1ncn2[C@@H]1O[C@H](C[C@@H](N)CC[C@H](N)C(=O)O)[C@@H](O)[C@H]1O [sinefungin]
  activation of S-EGFP: did not have an effect
